Test results reported in patent publication US20240238380A1, “COMPOSITION FOR COMBINATION THERAPY COMPRISING GROWTH DIFFERENTIATION FACTOR-15 VARIANT AND GLUCAGON-LIKE PEPTIDE-1 RECEPTOR AGONIST” (YUHAN CORPORATION, priority 2021, published 2024).
At least one read-out could not be matched to a standard name with certainty.

Experiment: Pharmacokinetics of long-acting GDF15 fusion protein (dimer) in C57BL/6N mice
Assay type: in vivo
Conditions: 1 mg/kg subcutaneous
Method: 6-week-old male C57BL/6N mice (Orient Bio, Republic of Korea) were purchased from Hallym Lab. Animal Inc., Republic of Korea. Animals were acclimated for 7 days, and on the day of drug administration, the mice were grouped based on the average body weight of individual mice (n=3 per blood sampling time per group). Then, FM9-4+Fc_hole, FM9-6+Fc_hole, FM11-4+Fc_hole, and FM11-6+Fc_hole were subcutaneously administered at 1 mg/kg to each group, and blood samples were collected at 4, 24, 48, 72, 96, 120, 168, and 240 hours after administration. Determination of active GDF15 in serum was achieved by enzyme-linked immunosorbent assay (ELISA), and pharmacokinetic parameters of each long-acting GDF15 fusion protein (dimer) are shown in Table 3 below.

Substance | Vd/F [L/kg]
FM9-4 + Fc_hole: long-acting GDF15 fusion protein (dimer): GDF15 ΔN2, S64R, IgG1 Fc_knob/Fc_hole, linker GS(EEEA)6; SEQ ID NOs: 101 and 47 | 0.06931
FM9-6 + Fc_hole: long-acting GDF15 fusion protein (dimer): GDF15 ΔN2, S64R, IgG1 Fc_knob/Fc_hole, linker GS(EAAAK)5; SEQ ID NOs: 103 and 47 | 0.11102
FM11-4 + Fc_hole: long-acting GDF15 fusion protein (dimer): GDF15 ΔN3, G4N, D5S, H6T, S64R, IgG1 Fc_knob/Fc_hole, linker GS(EEEA)6; SEQ ID NOs: 107 and 47 | 0.08263
FM11-6 + Fc_hole: long-acting GDF15 fusion protein (dimer): GDF15 ΔN3, G4N, D5S, H6T, S64R, IgG1 Fc_knob/Fc_hole, linker GS(EAAAK)5; SEQ ID NOs: 109 and 47 | 0.3141
